Experimental data reported in publication PMC7455142.

Amino acid sequences for entries named in this document (tags omitted). A change or cut given only in a name is not applied to a line headed by its entry. Chains listed by the source or under a name are the forms on record and can include a tag or linker.
UniProt P60953: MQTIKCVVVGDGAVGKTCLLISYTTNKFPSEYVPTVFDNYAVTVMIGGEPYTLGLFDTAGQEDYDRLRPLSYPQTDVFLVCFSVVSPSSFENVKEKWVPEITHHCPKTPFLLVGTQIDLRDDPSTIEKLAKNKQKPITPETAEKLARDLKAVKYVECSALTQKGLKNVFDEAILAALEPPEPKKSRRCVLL
3xFlag-tagged Cdc42 splice variant 2 (P60953, form named): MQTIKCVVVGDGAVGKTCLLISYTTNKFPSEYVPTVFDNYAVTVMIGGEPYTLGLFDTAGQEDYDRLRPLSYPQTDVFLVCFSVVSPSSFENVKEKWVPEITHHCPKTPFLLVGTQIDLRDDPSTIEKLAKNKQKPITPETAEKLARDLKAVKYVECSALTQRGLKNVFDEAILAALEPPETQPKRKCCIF
UniProt P46940: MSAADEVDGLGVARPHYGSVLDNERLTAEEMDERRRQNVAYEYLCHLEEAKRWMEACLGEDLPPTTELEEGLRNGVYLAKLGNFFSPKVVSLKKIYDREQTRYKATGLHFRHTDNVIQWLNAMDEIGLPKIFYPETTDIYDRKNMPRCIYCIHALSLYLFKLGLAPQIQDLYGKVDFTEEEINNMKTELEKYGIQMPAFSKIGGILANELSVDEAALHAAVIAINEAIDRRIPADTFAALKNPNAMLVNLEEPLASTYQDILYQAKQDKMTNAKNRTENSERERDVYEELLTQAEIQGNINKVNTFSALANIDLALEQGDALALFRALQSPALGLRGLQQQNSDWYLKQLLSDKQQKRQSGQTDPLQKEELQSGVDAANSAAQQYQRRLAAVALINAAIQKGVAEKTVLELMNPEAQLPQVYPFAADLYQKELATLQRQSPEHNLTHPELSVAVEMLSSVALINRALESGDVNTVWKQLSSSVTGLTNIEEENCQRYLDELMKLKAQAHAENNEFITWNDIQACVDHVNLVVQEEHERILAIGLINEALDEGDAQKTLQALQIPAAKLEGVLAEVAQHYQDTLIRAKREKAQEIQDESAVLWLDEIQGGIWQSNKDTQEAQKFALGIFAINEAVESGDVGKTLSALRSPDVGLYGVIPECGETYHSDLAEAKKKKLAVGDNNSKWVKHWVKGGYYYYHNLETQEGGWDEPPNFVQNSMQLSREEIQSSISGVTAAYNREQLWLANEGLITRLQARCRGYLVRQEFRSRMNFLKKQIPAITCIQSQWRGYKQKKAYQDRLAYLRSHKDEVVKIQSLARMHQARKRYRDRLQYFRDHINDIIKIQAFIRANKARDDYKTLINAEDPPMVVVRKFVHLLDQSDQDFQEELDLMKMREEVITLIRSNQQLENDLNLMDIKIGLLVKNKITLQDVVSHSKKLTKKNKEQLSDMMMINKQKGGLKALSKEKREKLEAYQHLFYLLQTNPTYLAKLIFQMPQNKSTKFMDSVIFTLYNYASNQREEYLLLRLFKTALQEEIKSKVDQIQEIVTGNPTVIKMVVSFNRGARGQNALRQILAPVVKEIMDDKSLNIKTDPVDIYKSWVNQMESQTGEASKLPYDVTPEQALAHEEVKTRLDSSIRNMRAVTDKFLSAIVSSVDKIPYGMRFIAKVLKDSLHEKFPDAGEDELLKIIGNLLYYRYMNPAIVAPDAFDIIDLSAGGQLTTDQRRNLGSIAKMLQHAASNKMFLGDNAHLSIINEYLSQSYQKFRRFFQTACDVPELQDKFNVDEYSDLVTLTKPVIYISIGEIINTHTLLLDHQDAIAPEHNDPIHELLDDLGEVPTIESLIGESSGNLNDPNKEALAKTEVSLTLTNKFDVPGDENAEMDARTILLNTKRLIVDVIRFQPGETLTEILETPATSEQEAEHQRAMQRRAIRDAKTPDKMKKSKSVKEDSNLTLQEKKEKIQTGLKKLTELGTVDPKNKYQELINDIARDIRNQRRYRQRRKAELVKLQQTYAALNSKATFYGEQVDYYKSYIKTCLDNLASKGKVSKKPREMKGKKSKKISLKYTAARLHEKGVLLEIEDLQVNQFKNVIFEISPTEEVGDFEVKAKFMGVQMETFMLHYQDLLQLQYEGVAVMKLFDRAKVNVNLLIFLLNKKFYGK
UniProt O96013: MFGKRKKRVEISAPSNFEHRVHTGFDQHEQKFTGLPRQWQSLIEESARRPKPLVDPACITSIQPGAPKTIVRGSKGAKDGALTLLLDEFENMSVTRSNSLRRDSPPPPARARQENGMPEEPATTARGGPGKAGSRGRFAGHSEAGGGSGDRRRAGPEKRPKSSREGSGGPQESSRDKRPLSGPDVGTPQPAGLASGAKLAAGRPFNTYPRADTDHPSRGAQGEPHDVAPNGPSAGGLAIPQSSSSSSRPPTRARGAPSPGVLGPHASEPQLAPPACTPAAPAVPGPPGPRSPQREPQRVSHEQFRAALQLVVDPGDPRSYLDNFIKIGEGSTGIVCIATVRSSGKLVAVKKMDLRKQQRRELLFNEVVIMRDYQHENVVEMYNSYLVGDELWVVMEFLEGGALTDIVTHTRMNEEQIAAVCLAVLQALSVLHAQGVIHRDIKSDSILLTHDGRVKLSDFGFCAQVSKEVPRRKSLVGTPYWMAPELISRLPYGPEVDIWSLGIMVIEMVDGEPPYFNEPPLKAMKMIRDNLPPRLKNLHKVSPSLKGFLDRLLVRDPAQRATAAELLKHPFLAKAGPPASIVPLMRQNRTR
UniProt Q86VI3: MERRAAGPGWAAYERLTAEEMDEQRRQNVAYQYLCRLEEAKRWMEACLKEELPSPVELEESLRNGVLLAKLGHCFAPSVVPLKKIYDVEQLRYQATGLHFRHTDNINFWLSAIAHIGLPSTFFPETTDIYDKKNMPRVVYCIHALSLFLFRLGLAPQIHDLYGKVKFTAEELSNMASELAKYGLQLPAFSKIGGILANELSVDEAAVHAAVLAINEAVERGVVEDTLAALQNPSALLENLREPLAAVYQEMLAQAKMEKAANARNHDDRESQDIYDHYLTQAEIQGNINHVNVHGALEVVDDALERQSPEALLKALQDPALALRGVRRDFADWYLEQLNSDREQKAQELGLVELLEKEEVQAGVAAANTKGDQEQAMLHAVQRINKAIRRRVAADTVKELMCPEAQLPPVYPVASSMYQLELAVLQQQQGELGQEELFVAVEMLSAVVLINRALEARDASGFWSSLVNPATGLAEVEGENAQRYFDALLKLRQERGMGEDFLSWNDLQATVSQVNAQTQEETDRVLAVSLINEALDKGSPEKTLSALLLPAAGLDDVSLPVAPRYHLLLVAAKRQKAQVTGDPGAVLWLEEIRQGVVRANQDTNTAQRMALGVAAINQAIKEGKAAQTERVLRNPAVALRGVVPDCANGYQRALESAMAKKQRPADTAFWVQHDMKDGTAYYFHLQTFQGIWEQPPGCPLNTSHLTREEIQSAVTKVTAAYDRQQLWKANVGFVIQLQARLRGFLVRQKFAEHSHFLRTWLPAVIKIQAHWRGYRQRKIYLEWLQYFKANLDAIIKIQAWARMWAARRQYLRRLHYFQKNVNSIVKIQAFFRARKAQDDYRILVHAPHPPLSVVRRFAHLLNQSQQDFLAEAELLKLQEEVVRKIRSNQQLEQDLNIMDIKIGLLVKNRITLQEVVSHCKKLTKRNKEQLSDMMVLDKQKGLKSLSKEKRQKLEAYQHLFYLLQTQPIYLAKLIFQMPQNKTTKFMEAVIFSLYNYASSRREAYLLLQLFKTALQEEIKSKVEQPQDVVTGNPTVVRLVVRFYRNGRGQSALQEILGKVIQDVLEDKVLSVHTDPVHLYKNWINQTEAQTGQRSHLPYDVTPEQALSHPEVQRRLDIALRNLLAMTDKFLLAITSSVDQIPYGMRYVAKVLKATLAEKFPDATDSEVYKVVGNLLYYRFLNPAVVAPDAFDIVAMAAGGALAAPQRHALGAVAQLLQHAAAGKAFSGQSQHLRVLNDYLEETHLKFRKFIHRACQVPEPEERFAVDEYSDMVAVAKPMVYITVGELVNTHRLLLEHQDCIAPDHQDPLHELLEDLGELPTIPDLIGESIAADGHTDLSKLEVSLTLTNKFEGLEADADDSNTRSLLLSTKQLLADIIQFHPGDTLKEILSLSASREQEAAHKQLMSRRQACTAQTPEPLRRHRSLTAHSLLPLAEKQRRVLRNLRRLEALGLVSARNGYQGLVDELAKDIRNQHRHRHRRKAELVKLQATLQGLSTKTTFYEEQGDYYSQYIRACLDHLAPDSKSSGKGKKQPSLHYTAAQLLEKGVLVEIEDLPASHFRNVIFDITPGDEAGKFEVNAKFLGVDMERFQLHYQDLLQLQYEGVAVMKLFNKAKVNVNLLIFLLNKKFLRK

B1: MAPK kinase kinase 7 (enzyme, UniProt O43318 1-606)
chain: MSTASAASSSSSSSAGEMIEAPSQVLNFEEIDYKEIEVEEVVGRGAFGVVCKAKWRAKDVAIKQIESESERKAFIVELRQLSRVNHPNIVKLYGACLNPVCLVMEYAEGGSLYNVLHGAEPLPYYTAAHAMSWCLQCSQGVAYLHSMQPKALIHRDLKPPNLLLVAGGTVLKICDFGTACDIQTHMTNNKGSAAWMAPEVFEGSNYSEKCDVFSWGIILWEVITRRKPFDEIGGPAFRIMWAVHNGTRPPLIKNLPKPIESLMTRCWSKDPSQRPSMEEIVKIMTHLMRYFPGADEPLQYPCQYSDEGQSNSATSTGSFMDIASTNTSNKSDTNMEQVPATNDTIKRLESKLLKNQAKQQSESGRLSLGASRGSSVESLPPTSEGKRMSADMSEIEARIAATTAYSKPKRGHRKTASFGNILDVPEIVISGNGQPRRRSIQDLTVTGTEPGQVSSRSSSPSVRMITTSGPTSEKPTRSHPWTPDDSTDTNGSDNSIPMAYLTLDHQLQPLAPCPNSKESMAVFEQHCKMAQEYMKVQTEIALLLQRKQELVAELDQDEKDQQNTSRLVQEHKKLLDENKSLSTYYQQCKKQLEVIRSQQQKRQGTS

Experiments:
[1] = biological target: 3xFlag-tagged Cdc42 splice variant 2 (UniProt P60953); experiment: affinity purification with mass spectrometry; HEK293 cells transfected with pQCXIP-3×Flag-Cdc42-V1 or -V2 (empty vector as control); lysates immunoprecipitated with a Flag antibody; gel bands cut for mass spectrometry
[2] = biological target: 3xFlag-tagged Cdc42 variant 1 (canonical Cdc42) (UniProt P60953); experiment: as above

| Molecule | binding [1] | binding [2] |
| --- | --- | --- |
| IQGAP1 (from UniProt P46940 1-1657) | binds | – |
| PAK4 (from UniProt O96013 1-591) (enzyme) | binds | binds |
| IQGAP3 (from UniProt Q86VI3 1-1631) | binds | binds |
| B1 | binds | binds |

These are yes or no findings as the source states them, for the method shown. In cells and extracts the contact can be indirect. Here binding means that the protein was enriched with, or labelled near, the bait; the list need not be complete.
